Results on one sequence are retold here after publication PMC2387164.

The chains behind the UniProt entries cited, without tags or fusion partners. Where a name states a change or a piece, a line headed by the entry shows the natural chain unless it says otherwise.
UniProt Q08369: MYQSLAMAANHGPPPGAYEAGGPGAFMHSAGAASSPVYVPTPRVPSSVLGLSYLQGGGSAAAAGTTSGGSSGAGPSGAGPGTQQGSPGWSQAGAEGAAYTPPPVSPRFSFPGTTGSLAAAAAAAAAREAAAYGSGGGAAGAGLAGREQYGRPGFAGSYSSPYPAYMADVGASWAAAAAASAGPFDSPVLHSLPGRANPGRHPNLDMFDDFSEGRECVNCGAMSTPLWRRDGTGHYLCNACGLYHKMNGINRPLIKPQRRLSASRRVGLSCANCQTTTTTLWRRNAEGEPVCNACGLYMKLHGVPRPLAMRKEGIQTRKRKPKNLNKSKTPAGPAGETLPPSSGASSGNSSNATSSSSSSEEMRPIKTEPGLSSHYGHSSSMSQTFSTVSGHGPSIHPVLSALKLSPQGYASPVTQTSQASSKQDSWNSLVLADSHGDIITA

For the data set, the target named is GATA4 (UniProt Q08369). The data set is described as follows: EMSA. To be noted: labeled probe, self competitor; EMSA conditions as described previously (ref. 48); pH and temperature not given; protein translated in vitro; label: 32P (as probe).

For at least one entry, the source does not settle the construct or the ends of the probe. At least one verdict rests on a figure or table, not on a statement of the authors.

With “GATCCACTTTTTTATCTCAAGTGA / GATCTCACTTGAGATAAAAAAGTG [murine Star GATA]”, the binding result is on record as “binds”.
